Experimental data from paper doi:10.1101/2020.03.05.978999.
These are yes or no findings as the source states them, for the method shown. For some assays here: In cells and extracts the contact can be indirect. Some binding calls cover weakened binding; strength is not graded here. Sequences can lack the tags named with a protein.

T1: ROS1-BD (REPRESSOR OF … 1 fused to the Gal4 binding domain) (Arabidopsis thaliana) (UniProt Q9SJQ6)
T1 sequence: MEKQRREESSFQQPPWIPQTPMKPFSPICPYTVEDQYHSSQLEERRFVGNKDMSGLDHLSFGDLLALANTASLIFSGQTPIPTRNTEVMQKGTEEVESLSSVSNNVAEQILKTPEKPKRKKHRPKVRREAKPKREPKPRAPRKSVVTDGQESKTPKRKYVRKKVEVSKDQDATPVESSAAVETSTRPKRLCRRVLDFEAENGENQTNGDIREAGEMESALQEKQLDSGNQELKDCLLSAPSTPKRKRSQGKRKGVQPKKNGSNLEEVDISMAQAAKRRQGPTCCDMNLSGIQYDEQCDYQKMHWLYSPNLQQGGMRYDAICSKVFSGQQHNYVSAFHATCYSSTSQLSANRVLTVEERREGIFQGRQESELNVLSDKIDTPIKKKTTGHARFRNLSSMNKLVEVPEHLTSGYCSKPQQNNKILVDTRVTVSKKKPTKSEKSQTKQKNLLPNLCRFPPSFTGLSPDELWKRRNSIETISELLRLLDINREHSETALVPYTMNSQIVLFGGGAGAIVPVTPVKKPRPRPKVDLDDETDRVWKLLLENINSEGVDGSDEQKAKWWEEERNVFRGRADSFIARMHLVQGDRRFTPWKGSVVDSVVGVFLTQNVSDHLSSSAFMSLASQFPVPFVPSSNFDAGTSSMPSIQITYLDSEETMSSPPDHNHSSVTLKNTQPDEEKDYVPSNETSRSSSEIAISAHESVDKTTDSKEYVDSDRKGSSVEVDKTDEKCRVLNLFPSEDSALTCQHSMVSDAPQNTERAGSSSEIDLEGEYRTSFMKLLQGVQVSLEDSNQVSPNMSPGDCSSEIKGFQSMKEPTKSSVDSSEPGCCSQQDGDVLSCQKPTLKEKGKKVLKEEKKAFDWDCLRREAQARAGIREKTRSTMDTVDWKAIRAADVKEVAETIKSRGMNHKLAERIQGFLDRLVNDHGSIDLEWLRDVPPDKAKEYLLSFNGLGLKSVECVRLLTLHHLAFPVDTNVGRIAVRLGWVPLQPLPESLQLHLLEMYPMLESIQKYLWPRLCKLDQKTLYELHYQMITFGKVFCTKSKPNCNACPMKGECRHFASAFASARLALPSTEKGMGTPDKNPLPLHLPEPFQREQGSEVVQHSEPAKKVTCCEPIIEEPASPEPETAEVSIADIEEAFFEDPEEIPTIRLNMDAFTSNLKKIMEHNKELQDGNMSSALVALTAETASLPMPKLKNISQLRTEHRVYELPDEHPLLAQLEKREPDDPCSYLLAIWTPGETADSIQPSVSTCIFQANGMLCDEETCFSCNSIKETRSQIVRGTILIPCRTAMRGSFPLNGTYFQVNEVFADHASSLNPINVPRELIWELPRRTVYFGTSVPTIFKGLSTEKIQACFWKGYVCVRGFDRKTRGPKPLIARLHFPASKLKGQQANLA

T2: ROS1-nLUC (Arabidopsis thaliana) (UniProt Q9SJQ6)
T2 sequence: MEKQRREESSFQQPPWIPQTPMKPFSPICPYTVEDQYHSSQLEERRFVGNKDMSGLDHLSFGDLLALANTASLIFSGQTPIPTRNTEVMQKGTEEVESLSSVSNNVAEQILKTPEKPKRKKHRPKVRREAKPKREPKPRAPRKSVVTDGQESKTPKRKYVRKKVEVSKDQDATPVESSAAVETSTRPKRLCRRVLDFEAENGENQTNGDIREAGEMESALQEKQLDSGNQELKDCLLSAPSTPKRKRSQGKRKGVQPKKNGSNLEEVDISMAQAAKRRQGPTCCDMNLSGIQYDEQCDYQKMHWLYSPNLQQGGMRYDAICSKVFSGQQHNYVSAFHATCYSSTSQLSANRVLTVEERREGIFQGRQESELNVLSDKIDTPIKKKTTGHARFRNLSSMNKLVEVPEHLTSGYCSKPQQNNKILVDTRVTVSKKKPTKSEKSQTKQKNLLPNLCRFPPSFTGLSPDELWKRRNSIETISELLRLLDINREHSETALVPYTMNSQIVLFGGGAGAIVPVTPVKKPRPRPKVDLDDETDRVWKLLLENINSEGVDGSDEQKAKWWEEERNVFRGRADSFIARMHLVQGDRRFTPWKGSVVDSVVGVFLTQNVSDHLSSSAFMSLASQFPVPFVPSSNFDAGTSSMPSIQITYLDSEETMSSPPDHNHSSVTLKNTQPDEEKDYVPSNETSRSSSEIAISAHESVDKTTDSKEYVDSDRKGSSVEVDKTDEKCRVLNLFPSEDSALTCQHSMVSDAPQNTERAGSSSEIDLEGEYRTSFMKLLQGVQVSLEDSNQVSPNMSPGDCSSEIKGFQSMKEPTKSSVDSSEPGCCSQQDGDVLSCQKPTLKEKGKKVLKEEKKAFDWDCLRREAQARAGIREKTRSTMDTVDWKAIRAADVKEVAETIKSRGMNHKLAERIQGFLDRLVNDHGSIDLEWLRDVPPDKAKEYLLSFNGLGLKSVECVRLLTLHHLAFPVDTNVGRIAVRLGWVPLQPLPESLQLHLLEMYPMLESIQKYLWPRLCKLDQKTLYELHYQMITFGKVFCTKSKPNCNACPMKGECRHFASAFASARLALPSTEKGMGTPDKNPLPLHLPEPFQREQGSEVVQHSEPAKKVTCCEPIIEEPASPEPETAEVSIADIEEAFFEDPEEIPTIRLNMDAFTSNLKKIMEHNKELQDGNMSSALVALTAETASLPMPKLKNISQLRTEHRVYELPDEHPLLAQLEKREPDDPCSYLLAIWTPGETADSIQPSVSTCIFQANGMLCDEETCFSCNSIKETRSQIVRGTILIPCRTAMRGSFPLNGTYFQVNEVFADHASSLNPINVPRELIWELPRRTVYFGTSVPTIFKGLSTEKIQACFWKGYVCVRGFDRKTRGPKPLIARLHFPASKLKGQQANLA


Key:
[1] = biological target: T1, ROS1-BD (REPRESSOR OF … 1 fused to the Gal4 binding domain) (Arabidopsis thaliana); experiment: two-hybrid
[2] = biological target: T2, ROS1-nLUC (Arabidopsis thaliana); experiment: split reporter

Binder | binding [1] | binding [2]
SIZ1-AD (SUMO E3 ligase SIZ1 fused to the Gal4 activation domain) (protein, UniProt Q680Q4 1-884) MDLEANCKEKLSYFRIKELKDVLTQLGLSKQGKKQELVDRILTLLSDEQAARLLSKKNTVAKEAVAKLVDDTYRKMQVSGASDLASKGQVSSDTSNLKVKGEPEDPFQPEIKVRCVCGNSLETDSMIQCEDPRCHVWQHVGCVILPDKPMDGNPPLPESFYCEICRLTRADPFWVTVAHPLSPVRLTATTIPNDGASTMQSVERTFQITRADKDLLAKPEYDVQAWCMLLNDKVLFRMQWPQYADLQVNGVPVRAINRPGGQLLGVNGRDDGPIITSCIRDGVNRISLSGGDVRIFCFGVRLVKRRTLQQVLNLIPEEGKGETFEDALARVRRCIGGGGGDDNADSDSDIEVVADFFGVNLRCPMSGSRIKVAGRFLPCVHMGCFDLDVFVELNQRSRKWQCPICLKNYSVEHVIVDPYFNRITSKMKHCDEEVTEIEVKPDGSWRVKFKRESERRELGELSQWHAPDGSLCPSAVDIKRKMEMLPVKQEGYSDGPAPLKLGIRKNRNGIWEVSKPNTNGLSSSNRQEKVGYQEKNIIPMSSSATGSGRDGDDASVNQDAIGTFDFVANGMELDSISMNVDSGYNFPDRNQSGEGGNNEVIVLSDSDDENDLVITPGPAYSGCQTDGGLTFPLNPPGIINSYNEDPHSIAGGSSGLGLFNDDDEFDTPLWSFPSETPEAPGFQLFRSDADVSGGLVGLHHHSPLNCSPEINGGYTMAPETSMASVPVVPGSTGRSEANDGLVDNPLAFGRDDPSLQIFLPTKPDASAQSGFKNQADMSNGLRSEDWISLRLGDSASGNHGDPATTNGINSSHQMSTREGSMDTTTETASLLLGMNDSRQDKAKKQRSDNPFSFPRQKRSNNEQDHQTRHRSLNKICIILCAGKN | binds | –
cLUC-SIZ1 (protein, UniProt Q680Q4 1-884) MDLEANCKEKLSYFRIKELKDVLTQLGLSKQGKKQELVDRILTLLSDEQAARLLSKKNTVAKEAVAKLVDDTYRKMQVSGASDLASKGQVSSDTSNLKVKGEPEDPFQPEIKVRCVCGNSLETDSMIQCEDPRCHVWQHVGCVILPDKPMDGNPPLPESFYCEICRLTRADPFWVTVAHPLSPVRLTATTIPNDGASTMQSVERTFQITRADKDLLAKPEYDVQAWCMLLNDKVLFRMQWPQYADLQVNGVPVRAINRPGGQLLGVNGRDDGPIITSCIRDGVNRISLSGGDVRIFCFGVRLVKRRTLQQVLNLIPEEGKGETFEDALARVRRCIGGGGGDDNADSDSDIEVVADFFGVNLRCPMSGSRIKVAGRFLPCVHMGCFDLDVFVELNQRSRKWQCPICLKNYSVEHVIVDPYFNRITSKMKHCDEEVTEIEVKPDGSWRVKFKRESERRELGELSQWHAPDGSLCPSAVDIKRKMEMLPVKQEGYSDGPAPLKLGIRKNRNGIWEVSKPNTNGLSSSNRQEKVGYQEKNIIPMSSSATGSGRDGDDASVNQDAIGTFDFVANGMELDSISMNVDSGYNFPDRNQSGEGGNNEVIVLSDSDDENDLVITPGPAYSGCQTDGGLTFPLNPPGIINSYNEDPHSIAGGSSGLGLFNDDDEFDTPLWSFPSETPEAPGFQLFRSDADVSGGLVGLHHHSPLNCSPEINGGYTMAPETSMASVPVVPGSTGRSEANDGLVDNPLAFGRDDPSLQIFLPTKPDASAQSGFKNQADMSNGLRSEDWISLRLGDSASGNHGDPATTNGINSSHQMSTREGSMDTTTETASLLLGMNDSRQDKAKKQRSDNPFSFPRQKRSNNEQDHQTRHRSLNKICIILCAGKN | – | binds
